Protein sequences, listed by entry. Tags and fused reporters are not part of them. Lines headed by an entry give the natural chain unless they say otherwise; changes in a name come on top. Chains listed by the source or under a name are the forms on record and can include a tag or linker. Residues count along the entry.
Vegr1 (Flt1) (P35969, form named): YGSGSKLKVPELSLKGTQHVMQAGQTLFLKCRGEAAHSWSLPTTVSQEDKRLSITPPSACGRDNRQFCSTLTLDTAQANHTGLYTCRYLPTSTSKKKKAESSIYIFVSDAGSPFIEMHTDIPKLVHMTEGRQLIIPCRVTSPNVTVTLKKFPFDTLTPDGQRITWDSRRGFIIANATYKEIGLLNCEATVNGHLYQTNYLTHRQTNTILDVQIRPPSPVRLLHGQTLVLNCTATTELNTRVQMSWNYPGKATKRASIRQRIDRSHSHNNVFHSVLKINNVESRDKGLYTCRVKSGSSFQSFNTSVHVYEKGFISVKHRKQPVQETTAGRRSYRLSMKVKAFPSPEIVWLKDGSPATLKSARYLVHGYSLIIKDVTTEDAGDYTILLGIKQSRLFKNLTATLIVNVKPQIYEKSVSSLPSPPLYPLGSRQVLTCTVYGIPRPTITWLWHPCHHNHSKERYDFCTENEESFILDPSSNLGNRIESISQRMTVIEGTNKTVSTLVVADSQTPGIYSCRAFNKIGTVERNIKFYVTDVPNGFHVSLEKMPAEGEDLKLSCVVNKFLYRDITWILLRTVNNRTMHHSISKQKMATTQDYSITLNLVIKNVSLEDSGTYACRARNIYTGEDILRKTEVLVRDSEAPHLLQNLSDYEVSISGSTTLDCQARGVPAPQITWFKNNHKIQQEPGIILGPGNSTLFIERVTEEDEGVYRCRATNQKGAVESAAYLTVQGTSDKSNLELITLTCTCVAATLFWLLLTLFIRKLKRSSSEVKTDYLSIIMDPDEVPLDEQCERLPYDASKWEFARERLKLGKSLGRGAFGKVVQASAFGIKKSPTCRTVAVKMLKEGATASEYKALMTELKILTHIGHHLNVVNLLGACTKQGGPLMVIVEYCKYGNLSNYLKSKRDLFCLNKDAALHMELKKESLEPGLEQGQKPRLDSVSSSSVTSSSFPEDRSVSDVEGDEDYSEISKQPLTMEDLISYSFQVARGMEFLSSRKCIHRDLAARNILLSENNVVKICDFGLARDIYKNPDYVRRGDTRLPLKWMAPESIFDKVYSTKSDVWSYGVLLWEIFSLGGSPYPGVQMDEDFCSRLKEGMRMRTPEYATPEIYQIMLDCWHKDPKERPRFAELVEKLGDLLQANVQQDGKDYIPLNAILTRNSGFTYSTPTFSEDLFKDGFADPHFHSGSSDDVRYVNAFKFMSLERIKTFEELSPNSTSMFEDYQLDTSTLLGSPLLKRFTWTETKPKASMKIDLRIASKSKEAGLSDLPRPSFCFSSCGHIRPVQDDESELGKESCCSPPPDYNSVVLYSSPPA
UniProt Q9QUI0: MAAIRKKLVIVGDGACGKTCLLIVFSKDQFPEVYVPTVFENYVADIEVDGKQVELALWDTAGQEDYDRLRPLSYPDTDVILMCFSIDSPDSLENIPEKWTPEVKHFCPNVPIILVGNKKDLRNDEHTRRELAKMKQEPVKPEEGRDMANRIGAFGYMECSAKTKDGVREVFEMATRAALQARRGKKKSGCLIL
UniProt P35917, residues 25-1363: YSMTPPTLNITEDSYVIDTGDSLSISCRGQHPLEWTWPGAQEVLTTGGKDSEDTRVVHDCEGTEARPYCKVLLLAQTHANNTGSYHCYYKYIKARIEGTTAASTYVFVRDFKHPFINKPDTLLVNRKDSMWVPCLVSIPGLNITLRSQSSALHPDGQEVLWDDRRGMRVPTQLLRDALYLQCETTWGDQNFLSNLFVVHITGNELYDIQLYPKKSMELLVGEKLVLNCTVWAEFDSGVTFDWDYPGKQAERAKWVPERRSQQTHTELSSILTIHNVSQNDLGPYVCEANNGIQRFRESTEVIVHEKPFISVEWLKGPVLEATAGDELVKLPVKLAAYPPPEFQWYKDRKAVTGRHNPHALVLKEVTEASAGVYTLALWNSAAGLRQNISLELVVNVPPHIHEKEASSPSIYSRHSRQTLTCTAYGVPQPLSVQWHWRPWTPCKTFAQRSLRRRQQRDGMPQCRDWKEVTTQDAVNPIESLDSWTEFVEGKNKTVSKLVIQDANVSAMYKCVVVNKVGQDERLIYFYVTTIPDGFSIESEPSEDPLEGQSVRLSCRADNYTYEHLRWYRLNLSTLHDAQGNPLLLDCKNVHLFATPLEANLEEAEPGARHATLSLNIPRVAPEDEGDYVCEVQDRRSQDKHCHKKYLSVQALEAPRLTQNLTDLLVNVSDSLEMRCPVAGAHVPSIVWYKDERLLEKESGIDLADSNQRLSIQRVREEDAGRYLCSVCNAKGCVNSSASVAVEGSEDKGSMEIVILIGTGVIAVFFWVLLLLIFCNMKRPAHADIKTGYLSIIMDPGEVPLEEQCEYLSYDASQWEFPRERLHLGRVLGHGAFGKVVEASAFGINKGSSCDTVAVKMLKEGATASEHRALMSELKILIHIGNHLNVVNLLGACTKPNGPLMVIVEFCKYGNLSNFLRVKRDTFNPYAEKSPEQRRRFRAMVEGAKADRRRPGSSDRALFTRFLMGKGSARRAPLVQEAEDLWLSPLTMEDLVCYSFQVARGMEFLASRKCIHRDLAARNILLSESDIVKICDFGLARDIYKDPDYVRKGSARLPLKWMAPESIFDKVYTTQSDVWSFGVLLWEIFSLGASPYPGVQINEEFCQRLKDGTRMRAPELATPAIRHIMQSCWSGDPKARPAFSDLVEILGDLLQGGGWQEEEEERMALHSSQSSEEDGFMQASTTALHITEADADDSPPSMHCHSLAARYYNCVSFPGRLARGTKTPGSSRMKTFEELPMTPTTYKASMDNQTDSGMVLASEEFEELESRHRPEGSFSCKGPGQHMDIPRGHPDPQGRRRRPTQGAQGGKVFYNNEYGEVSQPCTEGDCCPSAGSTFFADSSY
UniProt P35918, residues 20-1345: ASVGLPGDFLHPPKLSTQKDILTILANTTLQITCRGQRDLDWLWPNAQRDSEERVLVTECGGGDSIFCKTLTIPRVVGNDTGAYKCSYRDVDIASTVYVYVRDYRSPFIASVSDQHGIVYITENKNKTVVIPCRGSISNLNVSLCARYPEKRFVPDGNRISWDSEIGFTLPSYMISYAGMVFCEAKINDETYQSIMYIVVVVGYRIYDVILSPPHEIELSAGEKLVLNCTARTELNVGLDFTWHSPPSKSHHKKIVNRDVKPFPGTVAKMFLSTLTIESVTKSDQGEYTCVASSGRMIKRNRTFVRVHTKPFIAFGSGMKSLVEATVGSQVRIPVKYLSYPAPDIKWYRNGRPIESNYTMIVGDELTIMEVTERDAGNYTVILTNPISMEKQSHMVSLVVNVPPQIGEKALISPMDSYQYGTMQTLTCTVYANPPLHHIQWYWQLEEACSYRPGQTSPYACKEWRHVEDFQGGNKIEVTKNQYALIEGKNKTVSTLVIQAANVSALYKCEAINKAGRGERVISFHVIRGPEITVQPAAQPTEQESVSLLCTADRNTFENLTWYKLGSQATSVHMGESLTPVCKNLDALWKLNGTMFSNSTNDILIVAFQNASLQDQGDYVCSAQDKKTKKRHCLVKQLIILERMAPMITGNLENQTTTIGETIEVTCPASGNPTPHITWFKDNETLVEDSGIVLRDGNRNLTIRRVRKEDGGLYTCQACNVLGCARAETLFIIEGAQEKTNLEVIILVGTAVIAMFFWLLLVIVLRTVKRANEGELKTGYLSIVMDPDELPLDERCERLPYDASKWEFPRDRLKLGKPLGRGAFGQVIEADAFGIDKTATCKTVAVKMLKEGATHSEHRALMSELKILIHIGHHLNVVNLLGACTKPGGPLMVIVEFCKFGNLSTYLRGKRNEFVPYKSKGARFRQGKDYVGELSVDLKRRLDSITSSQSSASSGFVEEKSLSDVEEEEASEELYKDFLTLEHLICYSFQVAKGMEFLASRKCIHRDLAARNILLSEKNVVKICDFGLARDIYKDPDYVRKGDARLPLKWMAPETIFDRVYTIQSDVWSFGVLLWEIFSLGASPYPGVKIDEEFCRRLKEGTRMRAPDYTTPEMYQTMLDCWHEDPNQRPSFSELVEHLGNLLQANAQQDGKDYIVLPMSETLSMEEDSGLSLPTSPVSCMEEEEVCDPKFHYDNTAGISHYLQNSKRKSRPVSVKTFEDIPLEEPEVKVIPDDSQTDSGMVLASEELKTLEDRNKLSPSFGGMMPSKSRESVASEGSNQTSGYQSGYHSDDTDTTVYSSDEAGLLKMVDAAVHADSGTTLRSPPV
UniProt Q8VI36: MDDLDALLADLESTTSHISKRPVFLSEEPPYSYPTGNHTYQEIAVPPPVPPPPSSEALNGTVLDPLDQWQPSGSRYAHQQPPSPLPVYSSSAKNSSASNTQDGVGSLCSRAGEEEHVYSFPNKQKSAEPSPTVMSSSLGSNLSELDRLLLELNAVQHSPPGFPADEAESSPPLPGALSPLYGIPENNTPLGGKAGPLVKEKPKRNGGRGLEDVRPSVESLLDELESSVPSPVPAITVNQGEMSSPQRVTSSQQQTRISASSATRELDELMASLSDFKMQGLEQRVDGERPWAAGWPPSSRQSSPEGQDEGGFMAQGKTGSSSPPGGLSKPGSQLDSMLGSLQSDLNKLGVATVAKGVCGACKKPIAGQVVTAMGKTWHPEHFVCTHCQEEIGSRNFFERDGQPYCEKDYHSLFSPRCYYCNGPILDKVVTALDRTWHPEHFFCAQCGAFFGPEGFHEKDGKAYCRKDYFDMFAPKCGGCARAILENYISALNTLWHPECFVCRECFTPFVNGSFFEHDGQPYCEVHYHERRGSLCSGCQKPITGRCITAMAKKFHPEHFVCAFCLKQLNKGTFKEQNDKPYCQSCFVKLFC
UniProt Q02248: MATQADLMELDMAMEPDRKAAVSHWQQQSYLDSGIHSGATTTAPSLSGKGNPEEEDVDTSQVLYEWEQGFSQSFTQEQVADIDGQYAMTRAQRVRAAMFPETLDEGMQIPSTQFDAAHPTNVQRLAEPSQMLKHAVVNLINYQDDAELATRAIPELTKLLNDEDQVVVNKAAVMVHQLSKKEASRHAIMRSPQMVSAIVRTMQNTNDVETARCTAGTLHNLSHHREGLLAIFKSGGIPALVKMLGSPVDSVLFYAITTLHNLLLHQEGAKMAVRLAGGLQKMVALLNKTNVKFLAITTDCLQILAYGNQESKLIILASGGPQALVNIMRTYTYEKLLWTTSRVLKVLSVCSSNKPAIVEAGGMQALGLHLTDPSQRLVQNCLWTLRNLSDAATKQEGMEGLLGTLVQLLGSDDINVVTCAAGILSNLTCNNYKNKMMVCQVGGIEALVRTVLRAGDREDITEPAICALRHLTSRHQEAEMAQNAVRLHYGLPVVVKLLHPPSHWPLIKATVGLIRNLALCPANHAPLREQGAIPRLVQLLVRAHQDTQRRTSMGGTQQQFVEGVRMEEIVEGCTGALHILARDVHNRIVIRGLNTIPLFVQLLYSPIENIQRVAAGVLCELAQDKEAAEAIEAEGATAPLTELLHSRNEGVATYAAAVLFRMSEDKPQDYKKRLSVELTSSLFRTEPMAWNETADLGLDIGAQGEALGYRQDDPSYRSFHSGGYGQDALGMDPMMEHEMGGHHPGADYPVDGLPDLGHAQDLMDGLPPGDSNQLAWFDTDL
UniProt P26231: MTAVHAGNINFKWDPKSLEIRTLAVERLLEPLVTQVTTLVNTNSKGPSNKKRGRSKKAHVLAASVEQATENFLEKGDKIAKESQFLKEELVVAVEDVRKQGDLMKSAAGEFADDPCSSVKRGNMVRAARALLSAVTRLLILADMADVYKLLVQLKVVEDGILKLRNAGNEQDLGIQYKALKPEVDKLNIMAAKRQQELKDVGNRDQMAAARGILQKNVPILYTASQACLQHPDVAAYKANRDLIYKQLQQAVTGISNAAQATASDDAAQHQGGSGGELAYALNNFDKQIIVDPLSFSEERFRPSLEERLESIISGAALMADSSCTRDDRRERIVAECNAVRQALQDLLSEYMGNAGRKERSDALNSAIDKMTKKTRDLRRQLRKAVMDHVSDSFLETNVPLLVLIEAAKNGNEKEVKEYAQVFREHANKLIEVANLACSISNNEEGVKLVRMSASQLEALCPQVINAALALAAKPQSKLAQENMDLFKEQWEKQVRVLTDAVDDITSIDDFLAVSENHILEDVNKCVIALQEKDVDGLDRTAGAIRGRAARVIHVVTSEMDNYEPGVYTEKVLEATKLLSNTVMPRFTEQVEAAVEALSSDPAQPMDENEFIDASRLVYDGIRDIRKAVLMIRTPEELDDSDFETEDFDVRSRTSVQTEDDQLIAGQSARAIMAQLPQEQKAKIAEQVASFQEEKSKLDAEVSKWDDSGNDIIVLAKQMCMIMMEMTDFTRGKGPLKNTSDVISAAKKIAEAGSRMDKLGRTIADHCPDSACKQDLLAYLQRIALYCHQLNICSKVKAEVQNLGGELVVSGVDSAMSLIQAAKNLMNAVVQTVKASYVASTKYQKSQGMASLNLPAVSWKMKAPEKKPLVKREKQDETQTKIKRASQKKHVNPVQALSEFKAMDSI

According to publication doi:10.1101/2025.03.09.642194:

T1: Neuropilin 2 (mouse (endogenous in immortalised mouse lung microvascular ECs)), O35375
T1 chain: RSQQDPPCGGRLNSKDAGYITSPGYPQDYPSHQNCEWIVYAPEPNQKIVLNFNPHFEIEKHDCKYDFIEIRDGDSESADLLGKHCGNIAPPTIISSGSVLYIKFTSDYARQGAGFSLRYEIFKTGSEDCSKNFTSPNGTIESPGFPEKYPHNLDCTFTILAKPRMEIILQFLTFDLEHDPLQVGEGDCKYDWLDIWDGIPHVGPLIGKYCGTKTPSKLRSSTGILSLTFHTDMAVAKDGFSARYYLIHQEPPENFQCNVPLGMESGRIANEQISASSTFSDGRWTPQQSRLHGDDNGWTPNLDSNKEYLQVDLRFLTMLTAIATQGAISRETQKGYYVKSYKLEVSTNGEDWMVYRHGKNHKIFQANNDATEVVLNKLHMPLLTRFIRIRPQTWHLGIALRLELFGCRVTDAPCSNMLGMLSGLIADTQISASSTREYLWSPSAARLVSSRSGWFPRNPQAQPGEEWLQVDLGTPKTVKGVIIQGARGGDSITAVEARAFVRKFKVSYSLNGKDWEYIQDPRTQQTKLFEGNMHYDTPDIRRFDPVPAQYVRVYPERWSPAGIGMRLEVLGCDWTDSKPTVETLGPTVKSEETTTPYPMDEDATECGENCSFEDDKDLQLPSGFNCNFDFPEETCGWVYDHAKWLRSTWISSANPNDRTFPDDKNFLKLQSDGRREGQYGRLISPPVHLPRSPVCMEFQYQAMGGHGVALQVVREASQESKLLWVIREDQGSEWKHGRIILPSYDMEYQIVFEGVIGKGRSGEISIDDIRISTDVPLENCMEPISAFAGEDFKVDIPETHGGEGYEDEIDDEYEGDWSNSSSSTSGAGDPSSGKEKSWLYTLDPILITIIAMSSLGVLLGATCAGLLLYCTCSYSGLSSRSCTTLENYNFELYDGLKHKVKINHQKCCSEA


Target: T1, Neuropilin 2 (mouse (endogenous in …))
Test: affinity purification with mass spectrometry
Details: remark: other sources report otherwise

Row | Molecule | binding
1 | Nrp1, P97333 22-923 (receptor) FRSDKCGGTIKIENPGYLTSPGYPHSYHPSEKCEWLIQAPEPYQRIMINFNPHFDLEDRDCKYDYVEVIDGENEGGRLWGKFCGKIAPSPVVSSGPFLFIKFVSDYETHGAGFSIRYEIFKRGPECSQNYTAPTGVIKSPGFPEKYPNSLECTYIIFAPKMSEIILEFESFDLEQDSNPPGGMFCRYDRLEIWDGFPEVGPHIGRYCGQKTPGRIRSSSGVLSMVFYTDSAIAKEGFSANYSVLQSSISEDFKCMEALGMESGEIHSDQITASSQYGTNWSVERSRLNYPENGWTPGEDSYKEWIQVDLGLLRFVTAVGTQGAISKETKKKYYVKTYRVDISSNGEDWISLKEGNKAIIFQGNTNPTDVVLGVFSKPLITRFVRIKPVSWETGISMRFEVYGCKITDYPCSGMLGMVSGLISDSQITASNQADRNWMPENIRLVTSRTGWALPPSPHPYTNEWLQVDLGDEKIVRGVIIQGGKHRENKVFMRKFKIAYSNNGSDWKTIMDDSKRKAKSFEGNNNYDTPELRTFSPLSTRFIRIYPERATHSGLGLRMELLGCEVEAPTAGPTTPNGNPVDECDDDQANCHSGTGDDFQLTGGTTVLATEKPTIIDSTIQSEFPTYGFNCEFGWGSHKTFCHWEHDSHAQLRWSVLTSKTGPIQDHTGDGNFIYSQADENQKGKVARLVSPVVYSQSSAHCMTFWYHMSGSHVGTLRVKLRYQKPEEYDQLVWMVVGHQGDHWKEGRVLLHKSLKLYQVIFEGEIGKGNLGGIAVDDISINNHISQEDCAKPTDLDKKNTEIKIDETGSTPGYEGEGEGDKNISRKPGNVLKTLDPILITIIAMSALGVLLGAVCGVVLYCACWHNGMSERNLSALENYNFELVDGVKLKKDKLNPQSNYSEA | binds

Target: Neuropilin 2 (mouse (endogenous in immortalised mouse lung microvascular ECs)) (UniProt O35375)
Test: affinity purification with mass spectrometry
Details: not given

Row | Molecule | binding
2 | Gipc1 (from UniProt Q9Z0G0 1-333) | binds
3 | Vegr1 (Flt1) (from UniProt P35969 23-1333) (receptor) | binds
4 | pyruvate kinase (Pkm) (from UniProt P52480 1-531) (enzyme) | binds
5 | RhoA (from UniProt Q9QUI0 1-193) | binds
6 | Caveolin-1 (Cav1) (from UniProt P49817 1-178) | binds
7 | Vegfr3 (Flt4) (from UniProt P35917 25-1363) (receptor) | binds
8 | PlexinD1 (Plxnd1) (from UniProt Q3UH93 49-1925) (receptor) | binds
9 | focal adhesion kinase (FAK/Ptk2) (from UniProt P34152 1-1052) (enzyme) | binds
10 | Vegfr2 (Kdr) (from UniProt P35918 20-1345) (receptor) | binds
11 | paxillin (Pxn) (from UniProt Q8VI36 1-591) | binds
12 | β-catenin (Ctnnb1) (from UniProt Q02248 1-781) | binds
13 | α catenin (Ctnna1) (from UniProt P26231 1-906) | binds
14 | p120-catenin (Ctnnd1) (protein, UniProt P30999 1-938) MDDSEVESTASILASVKEQEAQFEKLTRALEEERRHVSAQLERVRVSPQDANSLMANGTLTRRHQNGRFVGDADLERQKFSDLKLNGPQDHNHLLYSTIPRMQEPGQIVETYTEEDPEGAMSVVSVETTDDGTTRRTETTVKKVVKTMTTRTVQPVPMGPDGLPVDASAVSNNYIQTLGRDFRKNGNGGPGPYVGQAGTATLPRNFHYPPDGYGRHYEDGYPGGSDNYGSLSRVTRIEERYRPSMEGYRAPSRQDVYGPQPQVRVGGSSVDLHRFHPEPYGLEDDQRSMGYDDLDYGMMSDYGTARRTGTPSDPRRRLRSYEDMIGEEVPPDQYYWAPLAQHERGSLASLDSLRKGMPPPSNWRQPELPEVIAMLGFRLDAVKSNAAAYLQHLCYRNDKVKTDVRKLKGIPILVGLLDHPKKEVHLGACGALKNISFGRDQDNKIAIKNCDGVPALVRLLRKARDMDLTEVITGTLWNLSSHDSIKMEIVDHALHALTDEVIIPHSGWEREPNEDCKPRHIEWESVLTNTAGCLRNVSSERSEARRKLRECDGLVDALIFIVQAEIGQKDSDSKLVENCVCLLRNLSYQVHREIPQAERYQEALPTVANSTGPHAASCFGAKKGKDEWFSRGKKPTEDPANDTVDFPKRTSPARGYELLFQPEVVRIYISLLKESKTPAILEASAGAIQNLCAGRWTYGRYIRSALRQEKALSAIAELLTSEHERVVKAASGALRNLAVDARNKELIGKHAIPNLVKNLPGGQQNSSWNFSEDTVVSILNTINEVIAENLEAAKKLRETQGIEKLVLINKSGNRSEKEVRAAALVLQTIWGYKELRKPLEKEGWKKSDFQVNLNNASRSQSSHSYDDSTLPLIDRNQKSDKKPDREEIPMSNMGSNTKSLDNNYSTLNERGDHNRTLDRSGDLGDMEPLKGAPLMQKI | binds
15 | Vascular endothelial (VE)-cadherin (Cdh5) (protein, UniProt P55284 46-784) DWIWNQMHIDEEKNESLPHYVGKIKSNVNRQNAKYVLQGEFAGKIFGVDANTGNVLAYERLDREKVSEYFLTALIVDKNTNKNLEQPSSFTVKVHDINDNWPVFSHQVFNASVPEMSAIGTSVIRVTAVDADDPTVAGHATVLYQIVKGNEYFSIDNSGLIFTKIKNLDREKQAEYKIVVETQDALGLRGESGTATVMIRLEDINDNFPVFTQSTYTFSVPEDIRVGKPLGFLTVVDPDEPQNRMTKYSIMQGEYRDTFTIETDPKRNEGIIKPTKSLDYEVIQQYTFYIEATDPTIRYEYLSSTSGKNKAMVTINVLDVDEPPVFQRHFYHFKLPENQKKPLIGTVVAKDPDKAQRSIGYSIRKTSDRGQFFRITKQGNIYNEKELDRETYAWYNLTVEANELDSRGNPVGKESIVQVYIEVLDENDNPPEFAQPYEPKVCENAAQGKLVVQISATDKDVVPVNPKFKFALKNEDSNFTLINNHDNTANITVKYGQFNREHAKFHYLPVLISDNGVPSLTGTSTLTVGVCKCNEQGEFTFCEEMAAQAGVSIQALVAIFLCILTITVITLLIILRRRIRKQAHAHSKSALEIHEQLVTYDEEGGGEMDTTSYDVSVLNSVRGGSTKPLRSTMDARPAVYTQVQKPPRLAPGLHGGPREMATMIDVKKEEADNDGGGPPYDTLHIYGYEGAESIAESLSSLSTNSSDSDIDYDFLNDWGPRFKMLAELYGSDPQEELII | binds
16 | platelet and endothelial cell adhesion molecule-1 (Pecam1) (protein, UniProt Q08481 18-727) EENSFTINSIHMESLPSWEVMNGQQLTLECLVDISTTSKSRSQHRVLFYKDDAMVYNVTSREHTESYVIPQARVFHSGKYKCTVMLNNKEKTTIEYEVKVHGVSKPKVTLDKKEVTEGGVVTVNCSLQEEKPPIFFKIEKLEVGTKFVKRRIDKTSNENFVLMEFPIEAQDHVLVFRCQAGILSGFKLQESEPIRSEYVTVQESFSTPKFEIKPPGMIIEGDQLHIRCIVQVTHLVQEFTEIIIQKDKAIVATSKQSSEAVYSVMAMVEYSGHYTCKVESNRISKASSIMVNITELFPKPKLEFSSSRLDQGELLDLSCSVSGTPVANFTIQKEETVLSQYQNFSKIAEESDSGEYSCTAGIGKVVKRSGLVPIQVCEMLSKPSIFHDAKSEIIKGHAIGISCQSENGTAPITYHLMKAKSDFQTLEVTSNDPATFTDKPTRDMEYQCRADNCHSHPAVFSEILRVRVIAPVDEVVISILSSNEVQSGSEMVLRCSVKEGTSPITFQFYKEKEDRPFHQAVVNDTQAFWHNKQASKKQEGQYYCTASNRASSMRTSPRSSTLAVRVFLAPWKKGLIAVVVIGVVIATLIVAAKCYFLRKAKAKQKPVEMSRPAAPLLNSNSEKISEPSVEANSHYGYDDVSGNDAVKPINQNKDPQNMDVEYTEVEVSSLEPHQALGTRATETVYSEIRKVDPNLMENRYSRTEGSLNGT | binds

No constants are given. Whether binding was seen depends on the method and setting. Binding seen in cells or lysates may run through a third protein. Here binding means that the protein was enriched with, or labelled near, the bait; the list need not be complete.
